According to patent US20110086044A1, “Compositions and Methods to Inhibit HPV Infection” (University of Southern California, priority 2009, published 2011):
No constants are given. Whether binding was seen depends on the method and setting. Some binding calls cover weakened binding; strength is not graded here.

Protein sequences, listed by entry. Tags and fused reporters are not part of them. Lines headed by an entry give the natural chain unless they say otherwise; changes in a name come on top.
UniProt P60903: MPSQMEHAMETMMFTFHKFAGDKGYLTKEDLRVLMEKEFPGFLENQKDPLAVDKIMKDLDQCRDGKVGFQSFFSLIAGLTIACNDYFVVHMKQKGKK
UniProt P03107: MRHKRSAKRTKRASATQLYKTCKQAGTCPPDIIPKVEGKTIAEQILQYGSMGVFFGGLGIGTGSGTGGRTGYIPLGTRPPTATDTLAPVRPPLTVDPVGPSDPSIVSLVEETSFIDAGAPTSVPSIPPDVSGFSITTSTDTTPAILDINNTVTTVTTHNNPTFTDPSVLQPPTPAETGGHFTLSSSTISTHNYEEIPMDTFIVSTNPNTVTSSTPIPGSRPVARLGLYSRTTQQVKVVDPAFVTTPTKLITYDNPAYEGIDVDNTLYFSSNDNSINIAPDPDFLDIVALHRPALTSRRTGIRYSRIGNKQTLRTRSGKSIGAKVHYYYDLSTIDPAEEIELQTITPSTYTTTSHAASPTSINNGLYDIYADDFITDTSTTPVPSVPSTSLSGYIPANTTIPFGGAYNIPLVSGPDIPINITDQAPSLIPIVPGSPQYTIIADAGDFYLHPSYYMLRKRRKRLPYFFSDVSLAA

Biological target: ANXA2 heterotetramer (human) (UniProt P60903)
Experiment: summary of the pulldown and binding assays of Example 2

HPV16 L2 protein (from UniProt P03107 1-473)
binding: binds
